Assay results as given in patent publication US20150329644A1.
These are yes or no findings as the source states them, for the method shown. Some binding calls cover weakened binding; strength is not graded here. Tags and fused reporters may be left off the sequences shown.

Chains of the proteins cited; added tags and fusions are not shown. Lines headed by an entry give the natural chain unless they say otherwise; changes in a name come on top.
UniProt Q49A26: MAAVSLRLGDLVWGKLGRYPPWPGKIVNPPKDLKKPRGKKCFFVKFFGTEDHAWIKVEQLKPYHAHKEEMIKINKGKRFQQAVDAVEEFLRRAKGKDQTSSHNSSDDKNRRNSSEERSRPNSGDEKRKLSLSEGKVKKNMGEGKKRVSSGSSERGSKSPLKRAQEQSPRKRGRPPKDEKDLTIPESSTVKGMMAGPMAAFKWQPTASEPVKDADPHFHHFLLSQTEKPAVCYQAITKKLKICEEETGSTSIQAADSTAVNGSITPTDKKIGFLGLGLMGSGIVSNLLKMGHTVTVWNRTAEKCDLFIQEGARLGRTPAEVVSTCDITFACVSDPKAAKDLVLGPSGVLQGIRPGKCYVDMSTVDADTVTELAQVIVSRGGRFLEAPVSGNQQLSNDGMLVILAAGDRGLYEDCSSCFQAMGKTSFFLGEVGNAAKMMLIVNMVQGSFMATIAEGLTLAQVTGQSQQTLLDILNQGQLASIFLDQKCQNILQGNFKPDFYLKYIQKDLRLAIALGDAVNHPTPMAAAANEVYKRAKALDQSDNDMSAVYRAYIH

Experiments:
[1] = target: T1, FLAG-HA tagged LSD2 bait protein (stably expressed in HeLa, tandem affinity purified) (human) (UniProt Q8NB78); experiment: immunoblot of tandem affinity purified LSD2 complex from HeLa (association in a complex)
T1 sequence (looked up): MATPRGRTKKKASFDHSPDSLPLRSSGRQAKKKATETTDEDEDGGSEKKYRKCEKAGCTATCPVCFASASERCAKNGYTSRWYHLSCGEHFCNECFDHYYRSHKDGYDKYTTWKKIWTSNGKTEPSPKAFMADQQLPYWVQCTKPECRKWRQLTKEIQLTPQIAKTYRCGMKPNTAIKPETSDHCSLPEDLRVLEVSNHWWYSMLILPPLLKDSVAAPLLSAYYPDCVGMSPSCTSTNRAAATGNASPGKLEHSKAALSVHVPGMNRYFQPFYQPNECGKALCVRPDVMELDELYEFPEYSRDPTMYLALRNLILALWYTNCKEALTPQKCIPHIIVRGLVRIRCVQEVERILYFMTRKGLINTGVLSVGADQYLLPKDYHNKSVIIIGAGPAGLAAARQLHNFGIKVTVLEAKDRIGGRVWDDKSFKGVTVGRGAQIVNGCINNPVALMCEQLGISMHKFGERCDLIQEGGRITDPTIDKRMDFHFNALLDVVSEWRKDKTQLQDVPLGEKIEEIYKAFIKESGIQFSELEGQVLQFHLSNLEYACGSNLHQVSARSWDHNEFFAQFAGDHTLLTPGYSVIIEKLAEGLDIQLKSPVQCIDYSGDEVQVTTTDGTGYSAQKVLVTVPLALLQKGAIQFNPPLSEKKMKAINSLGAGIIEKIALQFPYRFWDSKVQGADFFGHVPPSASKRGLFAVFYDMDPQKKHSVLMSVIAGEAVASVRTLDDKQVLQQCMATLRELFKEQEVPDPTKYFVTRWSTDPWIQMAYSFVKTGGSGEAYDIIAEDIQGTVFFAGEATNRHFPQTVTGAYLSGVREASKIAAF

[2] = target: T1, FLAG-HA tagged LSD2 bait protein (stably expressed in HeLa, tandem affinity purified) (human); experiment: immunoblot of tandem affinity purified LSD2 complex (FIG. 1B; association in a complex)
[3] = target: T1, FLAG-HA tagged LSD2 bait protein (stably expressed in HeLa, tandem affinity purified) (human); experiment: immunoblot of tandem affinity purified LSD2 and LSD1 complexes (FIG. 13B; association in a complex)

Measured: binding

Endogenous NPAC (human cells) (from UniProt Q49A26 1-553)
binds: all assays above
